Laboratory results from PubChem BioAssay AID493174 (National Center for Advancing Translational Sciences (NCATS), 2011).
The inconclusive results got no clear call from the source; some entries with a clear call stand among them for comparison. Potencies of inconclusive entries are doubtful fits and often do not repeat. Active and inactive are the calls of the source. The call rests on the fitted dose curve; in most records, active means well fitted inhibition curve with a large enough effect; inconclusive means small, poorly fitted or top-dose-only effect; inactive means flat fitted curve, though single readings scatter.

assay: Confirmatory Assay for General miRNAs Modulators and/or Inhibitors/Activators of miR-21: second round cherrypicks; details: HeLa miR-21 FLuc reporter, luciferase luminescence, 48 h; series mostly up to 38.3 µM
Source text: MLPCN Grant: 1 R21 NS059478-01 Assay Provider: Qihong Huang, The Wistar Institute NCGC Assay Overview: MicroRNAs (miRNAs) are endogenously encoded small (~20-25 nucleotides), nonprotein-coding RNAs that are involved in post-transcriptional repression of target messenger RNAs (mRNAs) (Le and Hannon, 2004). Estimated to be involved in the regulation of 30% of all protein-coding mRNAs (Filipowicz et al., 2008), miRNAs play a significant role in many biological processes including cellular differentiation and tissue development (Ghildiyal and Zamore, 2009).
NCGC Assay Protocol Summary: Reagents: HeLa cells stably expressing firefly luciferase (FLuc) under the control of a CMV promoter (upstream) and a miR-21 binding sequence directly downstream of the gene. These cells endogenously express miR-21. Control compounds used were compound C3 (provided by collaborator), N6-phenyladenosine (MP Biomedicals, 0215379625), and DMSO. Assay Summary: 6uL of HeLa miR-21-FLuc cells in assay buffer (DMEM, Invitrogen #21063-029; 10% FBS, HyClone #SH30071.03) were dispensed at 2000cells/well (3.3 x 10^5 cells/mL) into Greiner solid-white TC-treated 1536-well plates using a Multidrop Combi (Thermo Fisher Scientific). Plates were incubated for one hour at 37 degree Celsius, 95% humidity, 5% CO2. These assay plates were then treated with 23nL of compound or DMSO using a Kalypsys pin tool, which allows for delivery of a 24-point titration of each compound to the assay plate, with a final compound concentration ranging from approximately 40uM to 5pM. Assay plates were then incubated for 48 hours. After incubation, plates were allowed to come to RT for one hour prior to delivery of 3uL of 3X luciferase detection reagent. After a 15 minute incubation to allow for cell lysis, luciferase activity was measured using a ViewLux CCD imager (PerkinElmer), with an average exposure time of 2-12 seconds. Keywords: NIH Roadmap, MLPCN, MLSMR, qHTS, miR-21, microRNA, firefly luciferase, FLuc.

| SMILES | Potency |
| --- | --- |
| CC(C)(C)C1CCc2nc(NC(=O)Cc3ccc(Cl)cc3)sc2C1 (stereo not given) | inconclusive: 25.2 µM [inhibitor, partial curve, poor fit] |
| Cc1ccccc1NC(=O)c1cc2c([nH]c1=O)CC(C)(C)CC2=O | active: 0.711 µM |
| COC(=O)c1ccccc1NC(=O)Nc1cc(C(C)(C)C)on1 | active: 5.65 µM |
| COc1ccc(C(=O)Nc2ccc3oc(-c4ccc(OC)cc4)nc3c2)cc1 | inconclusive: 14.2 µM [inhibitor, partial curve] |
| Cc1ccc2nc(-c3ccc(NC(=O)c4ccc(S(C)(=O)=O)cc4)cc3)sc2c1 | inconclusive: 0.503 µM [inhibitor, full curve] |
| Cc1ccc(-n2ncc3c(Nc4ccc5c(c4)OCCO5)ncnc32)cc1Cl | inconclusive: 7.98 µM [inhibitor, partial curve] |
| C/C(=N/NC(=O)c1ccccc1)c1ccc(NC(=O)C(F)(F)F)cc1 | inactive |
| Cc1ccc2nc(N(CCCN(C)C)C(=O)c3ccco3)sc2c1 | inconclusive: 22.5 µM [inhibitor, partial curve, poor fit] |
| CN(C)c1ccc(CNC(=O)C2COc3ccccc3C2)cc1 (stereo not given) | inconclusive: 22.5 µM [inhibitor, partial curve, poor fit] |
| O=c1oc(Nc2cccc(Cl)c2)nc2ccccc12 | inconclusive: 5.65 µM [inhibitor, full curve] |
| Cc1cc(C)c2c(N)c(C(=O)Nc3ccccc3C(F)(F)F)sc2n1 | active: 20 µM |
| COc1ccccc1N1CCN(C(=O)c2nc(-c3ccc(C)cc3)n3c2CCCCC3)CC1 | inactive |
| CCOc1ccc(-c2cc3c(=O)n(CC(=O)Nc4cc(F)ccc4C)ccn3n2)cc1 | inconclusive: 0.895 µM [inhibitor, full curve] |
| CCC(C)NC(=O)CCCn1c(=O)c2cccn2c2ccccc21 (stereo not given) | inactive |
| Cc1ccc(NC(=O)Nc2ccc(Cl)cc2)c(Br)c1 | inconclusive: 14.2 µM [inhibitor, partial curve] |
| COc1cc(Cl)c(C)cc1NC(=O)c1cc2ccc3cccnc3c2[nH]1 | inconclusive: 2.25 µM [inhibitor, partial curve, poor fit] |
| Cc1c(-c2nsc(NC(=O)c3cccs3)n2)nnn1-c1ccc(Br)cc1 | inconclusive: 2.52 µM [inhibitor, full curve] |
| CCCCc1nn2c(=O)cc(COC(=O)c3cccc(NC(=O)c4cccc(C)c4)c3)nc2s1 | inconclusive: 2.83 µM [inhibitor, full curve] |
| CCC(CC)C(=O)Nc1nnc(S(=O)(=O)N2CCCCCC2)s1 | inactive |
| Cc1ccccc1C(=O)Nc1nnc(-c2ccco2)o1 | inconclusive: 7.98 µM [inhibitor, full curve] |

Exported tab-delimited: entries from further up.
SMILES	Potency
CC(C)(C)C1CCc2nc(NC(=O)Cc3ccc(Cl)cc3)sc2C1 (stereo not given)	inconclusive: 25.2 µM [inhibitor, partial curve, poor fit]
COc1ccccc1N1CCN(C(=O)c2nc(-c3ccc(C)cc3)n3c2CCCCC3)CC1	inactive

More results follow:

| SMILES | Potency |
| --- | --- |
| Cc1cc(C)nc(Nc2nc3ccccc3o2)n1 | inconclusive: 12.6 µM [inhibitor, partial curve] |
| Cc1ccc(-c2nc3ccc(Cl)cn3c2Nc2ccc3c(c2)OCCO3)o1 | inconclusive: 6.34 µM [inhibitor, full curve] |
| CCc1ccc(C(=O)NCc2cccs2)s1 | inconclusive: 11.3 µM [inhibitor, partial curve] |
| Cc1c(CCNC(=O)c2c(F)cccc2F)sc2nc(-c3ccc(F)cc3)nn12 | inconclusive: 7.11 µM [inhibitor, partial curve] |
| CC(C)(C)CC(=O)Nc1nnc(-c2cccs2)s1 | inconclusive: 7.11 µM [inhibitor, full curve] |
| CC(=O)c1ccc(Oc2ncnc3c2oc2ccccc23)cc1 | active: 4 µM |
| COc1cc(OC)c(-c2nn3c(C4CCCCC4)nnc3s2)cc1OC | inconclusive: 3.18 µM [inhibitor, full curve] |
| CCOCCCNC(=O)c1cc2c(=O)n3ccccc3nc2s1 | inconclusive: 5.65 µM [inhibitor, full curve] |
| Cc1ccc2c(Cl)c(C(=O)Nc3ccc4c(c3)OCO4)sc2c1 | inconclusive: 2 µM [inhibitor, full curve] |
| Cc1cc(N2CCN(C)CC2)nc2ccc(NC(=O)c3ccccc3F)cc12 | inconclusive: 14.2 µM [inhibitor, partial curve] |
| COc1ccc(Cc2nnc(-c3cccc(C)c3)o2)cc1OC | inconclusive: 20 µM [inhibitor, partial curve] |
| c1ccc(N2CCN(c3ncnc4[nH]ncc34)CC2)cc1 | inconclusive: 15.9 µM [inhibitor, partial curve, poor fit] |
| O=C(NC1CCCCCC1)C1CCN(C(=O)N2CCOc3ccc(Cl)cc32)CC1 | inactive |
| Cc1ccccc1OCc1nc2c3cnn(-c4ccccc4F)c3ncn2n1 | inconclusive: 12.6 µM [inhibitor, partial curve] |
| CC(=O)O[C@H]1C[C@@]2(C)[C@@H](C[C@@H](O)[C@H]3[C@@]4(C)CC[C@@H](O)[C@@H](C)C4CC[C@@]32C)/C1=C(\CCC=C(C)C)C(=O)O (stereo not given in full) | inactive |
| COc1ccc(CNc2nc(-c3ccco3)nn2C(=O)c2ccccc2Cl)cc1 | inconclusive: 12.6 µM [inhibitor, partial curve] |
| CCCOc1ccc(OC(=O)c2ccc(-c3ccc(CCC)cn3)cc2)cc1 | active: 1.26 µM |
| CC(=O)N1CCN(c2nc3c(F)cc(F)cc3s2)CC1 | inconclusive: 11.3 µM [inhibitor, partial curve] |
| COc1ccc(Nc2nc(C)c3ccccc3n2)cc1 | active: 6.34 µM |
| CN(c1ccccc1)S(=O)(=O)c1nnc(NC(=O)c2ccco2)s1 | inactive |
